Source: PubChem BioAssay AID2685 (National Center for Advancing Translational Sciences (NCATS), 2010)
Some of the results follow. Shown are side measurements of this screen, not its main read-out; they come without a call. The list favours compounds with an active or inconclusive main result. The note in brackets gives the kind of curve behind each potency; many fits are weak.

Assay: qHTS Assay for Lipid Storage Modulators in Drosophila S3 Cells;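 for cell number change: cells counted by Cell Tracker Red CMTPX staining in the red channel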
Settings: BODIPY lipid droplet fluorescence, 18-24 h; for cell number change: measured here: cell count max response, cells fed with added oleic acid
In short: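 Drosophila S3 cells got compounds at several concentrations plus oleic acid (400 uM solution). Laser-scanning cytometry with 488 nm excitation read lipid droplets at 500-530 nm and cells at 575-640 nm. Percent activity was relative to 20 uM Triacsin C.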

[1] = measured here: lipid fluorescence (Fed channel) AC50, cells fed with added oleic acid
[2] = measured here: cell number channel AC50, cells fed with added oleic acid

SMILES | cell number change | AC50 [1] | AC50 [2]
Cc1cc(C)cc(NC(=O)CSc2n[nH]c(-c3cccnc3)n2)c1 | -5.71% | – | –
O=C(O)c1cc2c(ccc3ccccc32)oc1=O | 24.6% | – | –
CCN(CC(=O)Nc1ccc(NC(C)=O)cc1)C(=O)CCN1C(=O)C2CC=CCC2C1=O (stereo unspecified) | 26.5% | – | –
O=C(Nc1ccc(OC(F)(F)F)cc1)c1ccc(S(=O)(=O)N2CCOCC2)o1 | 22.6% | 0.116 µM [rising, full curve, poor fit] | –
CC1CN(c2ncc(/C=N/NC(=O)c3ccccc3O)s2)CC(C)O1 (stereo unspecified) | -17.3% | 29.1 µM [falling, single point] | 1.46 µM [falling, partial curve, poor fit]
O=c1[nH]c(C2CCN(S(=O)(=O)c3ccc4c(c3)OCCO4)CC2)nc2c1nnn2Cc1c(F)cccc1Cl | 15.8% | 1.3 µM [rising, single point] | –
CN(C)C(CNC(=O)c1cc(S(=O)(=O)N(C)Cc2ccccc2)ccc1Cl)c1ccco1 (stereo unspecified) | 31.7% | 16.4 µM [rising, partial curve] | 18.4 µM [rising, single point]
CCN(CC)c1nc(-c2cccc(OC)c2O)nc2ccccc12 | – | 0.58 µM [rising, single point] | 0.58 µM [rising, single point]
CCOC(=O)c1c(NC=O)sc2c1CCC2 | 1.85% | – | –
Cc1ccc(OCC(=O)NCc2ccccn2)c(Br)c1 | -3.07% | 0.461 µM [rising, full curve, poor fit] | –
CC1=C(C)CS(=O)N(c2ccc(S(N)(=O)=O)cc2)C1 (stereo unspecified) | -35.1% | 16.4 µM [falling, partial curve] | 9.2 µM [falling, partial curve, poor fit]
Cc1c(CCO)c(=O)n(C)n1C(=O)c1ccc(F)cc1 | -7.92% | 0.82 µM [rising, partial curve] | –
Cc1ccc(C2CCN(C(=O)Nc3ccccc3)C2)cc1 (stereo unspecified) | 3.08% | 16.4 µM [falling, single point] | –
Cc1nc2nc(CSc3ccc(Cl)cc3)cc(=O)n2[nH]1 | – | 6.51 µM [falling, single point] | 2.91 µM [falling, partial curve]
O=C(NNS(=O)(=O)c1ccc(F)cc1)C1CC(c2cccnc2)=NO1 (stereo unspecified) | – | 6.51 µM [falling, single point] | –
Cc1cc(C)c(C)c(S(=O)(=O)Nc2ccc3cn[nH]c3c2)c1C | -13.6% | 29.1 µM [falling, single point] | –
COc1ccccc1/C=N/NC(=O)CNC(=O)c1ccc(S(=O)(=O)N2CCCC2)cc1 | 9.11% | – | 0.58 µM [falling, single point]
Cc1cccc(C(=O)OCC(=O)N(C)C(c2ccccc2)c2ccccc2)c1[N+](=O)[O-] | – | 6.51 µM [falling, single point] | –
CN(Cc1ccc(Cl)cc1Cl)C(=O)c1cc(=O)c2ccccc2o1 | 15.4% | 4.11 µM [falling, single point] | –
O=C(N/N=C/c1ccc([N+](=O)[O-])cc1)c1cccc2cc[nH]c12 | 4.06% | – | –
c1ccc(Cn2nnc3c(N4CCCCCC4)ncnc32)cc1 | – | 20.6 µM [rising, single point] | –

Not a retest: two of the compounds above.
SMILES | cell number change | AC50 [1] | AC50 [2]
CN(Cc1ccc(Cl)cc1Cl)C(=O)c1cc(=O)c2ccccc2o1 | 15.4% | 4.11 µM [falling, single point] | –
O=C(N/N=C/c1ccc([N+](=O)[O-])cc1)c1cccc2cc[nH]c12 | 4.06% | – | –

Continuation.

SMILES | cell number change | AC50 [1] | AC50 [2]
Cc1cc(NC(=O)CCC(=O)N(CCC(C)C)C(C(=O)NCC2CCCO2)c2ccccc2C)no1 (stereo unspecified) | 20.8% | – | –
Oc1ccccc1/C=N/Nc1ccnc(SCc2ccccc2)n1 | 19.7% | 0.731 µM [falling, partial curve] | 6.51 µM [rising, single point]
CCC1(c2ccccc2)NC(=O)N(CC(=O)Nc2ccc(S(N)(=O)=O)cc2)C1=O (stereo unspecified) | – | – | 6.51 µM [rising, single point]
Cc1cccc(-c2nc3cc(NC(=O)C4CCCO4)ccc3o2)c1 (stereo unspecified) | -2.41% | 3.66 µM [rising, partial curve] | –
O=C(CCN1CCN(CC(=O)Nc2ccccc2F)CC1)Nc1ccccc1F | -34.9% | – | 0.184 µM [falling, full curve]
C=CCn1c(SCC(=O)N2CC(=O)Nc3ccccc32)nc2scc(-c3ccccc3)c2c1=O | -51.6% | – | 18.4 µM [falling, single point]
COCCn1c(=O)c2c(nc3n2CCCN3Cc2ccccc2)n(C)c1=O | – | 23.1 µM [rising, single point] | –
COc1ccccc1NC(=O)Cn1c(=O)oc2cc(S(=O)(=O)N3CCCC3)ccc21 | 15.3% | – | –
CCN1CCN(C(=S)NC(=O)/C=C/c2cccs2)CC1 | 1.22% | – | –
O=C(N/N=C/c1ccoc1)c1ccc(Br)cc1 | 0.296% | 0.355 µM [falling, full curve, poor fit] | –
Cc1ccc(NC(=O)c2nc[nH]c2C(=O)N(C)Cc2ccccc2)cc1 | -32.9% | 23.1 µM [falling, partial curve, poor fit] | 29.1 µM [falling, partial curve, poor fit]
CCCN(C(=O)c1c(CC)noc1C)c1c(N)n(Cc2ccccc2)c(=O)[nH]c1=O | -4.75% | 0.731 µM [rising, single point] | –
Cc1cccc(-c2nc(NCCCN3CCOCC3)c3ccccc3n2)c1 | 57.5% | 6.51 µM [rising, single point] | 1.64 µM [rising, full curve, poor fit]
O=C(Nc1cccc(Cl)c1)C1CCN(C(=O)c2cccs2)CC1 | -1.26% | 20.6 µM [rising, single point] | –
Cc1ccc(OCCOCCn2cnc3ccccc3c2=O)cc1C | 31.5% | 29.1 µM [rising, single point] | –
CCOc1ccc(C(=S)NC2CCCCC2)cc1OCC | -20.4% | 29.1 µM [falling, single point] | –
CCSc1nc2ccccc2n1C(=O)/C=C/c1ccc(OC)c(OC)c1 | -55.3% | 6.51 µM [falling, full curve] | 23.1 µM [falling, partial curve]
Cc1cc(C(F)(F)F)nc2c(Cl)c(C(C)(C)C)nn12 | 13.5% | 6.51 µM [rising, single point] | –
COC(=O)c1c(NC(NC(C)=O)C(Cl)(Cl)Cl)sc2c1CCCC2 (stereo unspecified) | -11.1% | 1.3 µM [falling, partial curve] | –
COc1ccc(OC)c(S(=O)(=O)N2CCCC(C(=O)N3CCOCC3)C2)c1 (stereo unspecified) | -3.78% | – | –
CCCn1c(Sc2nnnn2-c2ccccc2)n[nH]c1=O | -2.85% | 0.82 µM [falling, single point] | –

SMILES | cell number change | AC50 [1] | AC50 [2]
c1ccc(COc2ccc(-c3sc(Nc4ccccc4)n[n+]3-c3ccccc3)cc2)cc1 | -34.7% | – | 29.1 µM [falling, single point]
CCc1cccc2c(C(=O)CSc3nnc(C4CC4)o3)c[nH]c12 | -6.84% | 1.3 µM [falling, full curve, poor fit] | –
O=C(Cn1[nH]c(=O)c2ccccc2c1=O)OCC(=O)c1ccccc1 | 11.8% | 16.4 µM [falling, single point] | –
CNC(=O)CN(c1cc(OCCOC)c(Cl)cc1Cl)S(=O)(=O)c1ccc(OC)cc1 | -6.65% | 3.66 µM [rising, full curve, poor fit] | –
Cc1c(NC(=S)N2CCN(c3ccc(F)cc3)CC2)c(=O)n(-c2ccccc2)n1C | -9.54% | 0.651 µM [falling, single point] | –
O=[N+]([O-])c1ccccc1NCc1c(O)ccc2ccccc12 | -51.1% | 0.206 µM [falling, full curve, poor fit] | 13 µM [falling, partial curve, poor fit]
O=C(OCc1cc(Cl)ccc1OC(F)F)c1cc(S(=O)(=O)O)ccc1O | – | 29.1 µM [falling, partial curve] | –
COc1ccc(OC)c(C2Nc3nc4ccccc4n3C(C)=C2C(=O)Nc2ccc(C)cc2C)c1 (stereo unspecified) | 14.4% | – | 0.651 µM [rising, partial curve]
CCCc1[nH]nc2c1C(c1c(C)nn(-c3ccccc3)c1Cl)C(C#N)=C(N)O2 (stereo unspecified) | – | 2.91 µM [rising, single point] | –
O=C(CN1C(=O)S/C(=C\c2cccc(Cl)c2)C1=O)NC1C=CS(=O)(=O)C1 (stereo unspecified) | 1.91% | 4.11 µM [falling, full curve, poor fit] | 6.51 µM [falling, partial curve, poor fit]
O=[N+]([O-])c1cccc(C(O)C23CN4CN(CN(C4)C2)C3)c1 (stereo unspecified) | 3.23% | 0.0651 µM [rising, full curve, poor fit] | –
CCS(=O)(=O)c1ccc2c(c1)N(S(=O)(=O)c1ccc(C)cc1)CC(C(=O)O)O2 (stereo unspecified) | -16.7% | – | –
COc1ccc(/C=C/c2ccc3cccc(O)c3n2)cc1Br | 231% | – | –
Cc1cc(C)c2cc(CN(Cc3cccs3)Cc3nnnn3CC3CCCO3)c(=O)[nH]c2c1 (stereo unspecified) | 3.45% | – | –
CCOC(=O)c1cc(-c2ccc(N)cc2)sc1N | 110% | – | 18.4 µM [rising, single point]
Cc1nnc(SCc2cc(=O)[nH]c(N3CCN(Cc4ccccc4)CC3)n2)s1 | -10.8% | 0.103 µM [falling, full curve, poor fit] | –
O=C(NC1=NCCS1)c1ccc(Cl)cc1 | -4.97% | 3.66 µM [rising, partial curve] | –
Cn1c(=O)c2c(nc(N3CCCCC3)n2CC(O)COc2ccccc2)n(C)c1=O (stereo unspecified) | 14.5% | 29.1 µM [rising, single point] | –
CCOc1cc(N2CCOCC2)c(OCC)cc1NC(=O)COc1ncnc2ccc(Br)cc12 | – | – | 0.461 µM [rising, partial curve]
